From the supplement of paper PMC10849652
The other results are listed elsewhere or left out.

The chains behind the UniProt entries cited, without tags or fusion partners. Where a name states a change or a piece, a line headed by the entry shows the natural chain unless it says otherwise.
UniProt Q8IWP9: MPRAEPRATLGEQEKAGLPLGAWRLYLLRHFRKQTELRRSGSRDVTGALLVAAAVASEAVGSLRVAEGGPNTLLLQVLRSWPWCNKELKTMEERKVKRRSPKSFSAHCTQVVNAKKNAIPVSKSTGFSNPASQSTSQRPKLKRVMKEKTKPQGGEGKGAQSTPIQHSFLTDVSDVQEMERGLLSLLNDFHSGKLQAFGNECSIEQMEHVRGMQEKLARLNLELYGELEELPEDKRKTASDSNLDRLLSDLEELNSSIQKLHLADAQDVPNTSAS
UniProt Q5ZPR3: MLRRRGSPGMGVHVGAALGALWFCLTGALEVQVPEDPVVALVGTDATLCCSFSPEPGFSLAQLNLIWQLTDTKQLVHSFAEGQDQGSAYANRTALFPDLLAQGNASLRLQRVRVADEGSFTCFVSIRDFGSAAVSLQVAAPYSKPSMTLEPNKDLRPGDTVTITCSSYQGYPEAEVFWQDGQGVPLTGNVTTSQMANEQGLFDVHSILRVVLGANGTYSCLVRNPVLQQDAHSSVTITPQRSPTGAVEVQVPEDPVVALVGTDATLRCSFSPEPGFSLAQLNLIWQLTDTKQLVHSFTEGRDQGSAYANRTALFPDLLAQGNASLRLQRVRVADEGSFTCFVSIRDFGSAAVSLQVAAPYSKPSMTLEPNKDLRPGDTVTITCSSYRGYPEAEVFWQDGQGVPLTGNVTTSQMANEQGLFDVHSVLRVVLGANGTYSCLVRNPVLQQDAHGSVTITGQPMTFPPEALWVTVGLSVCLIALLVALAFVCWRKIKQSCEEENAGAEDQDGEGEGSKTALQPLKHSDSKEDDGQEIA
UniProt P51636: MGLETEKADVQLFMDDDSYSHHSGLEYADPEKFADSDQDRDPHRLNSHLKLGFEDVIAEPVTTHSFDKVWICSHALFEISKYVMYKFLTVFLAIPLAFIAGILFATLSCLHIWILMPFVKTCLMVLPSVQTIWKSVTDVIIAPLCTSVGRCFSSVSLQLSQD
UniProt Q8ND76: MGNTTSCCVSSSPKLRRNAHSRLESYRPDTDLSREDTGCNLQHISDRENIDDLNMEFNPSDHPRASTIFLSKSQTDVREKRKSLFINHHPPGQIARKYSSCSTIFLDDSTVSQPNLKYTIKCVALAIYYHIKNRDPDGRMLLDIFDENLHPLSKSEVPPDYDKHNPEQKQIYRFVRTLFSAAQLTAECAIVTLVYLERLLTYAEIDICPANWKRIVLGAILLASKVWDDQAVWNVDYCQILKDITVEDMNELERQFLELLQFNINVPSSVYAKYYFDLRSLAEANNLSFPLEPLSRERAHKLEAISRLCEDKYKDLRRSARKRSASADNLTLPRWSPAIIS
UniProt Q9BUN5: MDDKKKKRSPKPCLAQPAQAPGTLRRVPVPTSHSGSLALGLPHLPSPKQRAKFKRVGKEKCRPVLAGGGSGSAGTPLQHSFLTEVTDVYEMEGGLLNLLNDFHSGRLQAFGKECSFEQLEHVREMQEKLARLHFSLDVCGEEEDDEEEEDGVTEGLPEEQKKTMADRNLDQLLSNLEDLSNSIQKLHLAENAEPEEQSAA
UniProt Q8N4S0: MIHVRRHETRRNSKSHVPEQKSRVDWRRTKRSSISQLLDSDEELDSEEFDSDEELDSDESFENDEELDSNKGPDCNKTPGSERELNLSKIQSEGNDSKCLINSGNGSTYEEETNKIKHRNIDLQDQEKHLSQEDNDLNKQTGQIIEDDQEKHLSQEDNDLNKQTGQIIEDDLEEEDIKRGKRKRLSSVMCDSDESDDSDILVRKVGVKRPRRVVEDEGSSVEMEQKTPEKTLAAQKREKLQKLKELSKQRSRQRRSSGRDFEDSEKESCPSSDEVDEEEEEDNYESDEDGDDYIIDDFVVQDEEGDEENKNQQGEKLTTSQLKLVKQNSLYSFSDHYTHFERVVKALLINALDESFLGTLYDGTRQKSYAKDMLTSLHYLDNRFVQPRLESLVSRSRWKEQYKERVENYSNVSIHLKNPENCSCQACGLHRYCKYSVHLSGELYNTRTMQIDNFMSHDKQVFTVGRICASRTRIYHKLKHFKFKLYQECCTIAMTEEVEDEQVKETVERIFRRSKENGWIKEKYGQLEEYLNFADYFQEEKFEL

How the values were obtained:
Assay in all cases: log2 fold change, soluble protein after heating vs DMSO (PISA); higher = thermal stabilisation; K562 cells, 10 uM, 30 min; active = over 0.2 and 3.5 SD of the protein, either way, in both replicates (recomputed)
bafetinib = compound: Cc1ccc(NC(=O)c2ccc(CN3CC[C@H](N(C)C)C3)c(C(F)(F)F)c2)cc1Nc1nccc(-c2cncnc2)n1 [bafetinib]
Method in brief: (§1)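 Values are thermal stability changes relative to control samples and are taken from duplicates. They are stated as log2 fold changes. Before quantification by TMTpro 16plex LC-MS/MS with equalised channel sums, K562 cells at 2×10^6 cells/mL were treated with 10 μM compound for 30 min, heated in aliquots for 3 min across 48°C-58°C, pooled, extracted in PBS with 0.5% NP-40 at 4°C, and centrifuged at 21,000xg for 90 min to give the soluble supernatant.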

nilotinib = compound: Cc1cn(-c2cc(NC(=O)c3ccc(C)c(Nc4nccc(-c5cccnc5)n4)c3)cc(C(F)(F)F)c2)cn1 [nilotinib]
Method in brief: as §1

[1] = compound: Cc1nc(Nc2n[nH]c3c2CN(C(=O)N[C@H](CN(C)C)c2ccccc2)C3(C)C)c2sccc2n1
Method in brief: as §1

dasatinib = compound: Cc1nc(Nc2ncc(C(=O)Nc3c(C)cccc3Cl)s2)cc(N2CCN(CCO)CC2)n1 [dasatinib]
Method in brief: as §1

[2] = compound: Cc1ncc(-c2ccnc(Nc3ccc(S(C)(=O)=O)cc3)n2)n1C(C)C
Method in brief: as §1

[3] = compound: Cn1cc(-c2ccc3c(c2)CCN3C(=O)Cc2cccc(C(F)(F)F)c2)c2c(N)ncnc21
Method in brief: as §1

[4] = compound: Cn1cc(-c2ccc3nnc(C(F)(F)c4ccc5ncccc5c4)n3n2)cn1
Method in brief: as §1

tipifarnib = compound: Cn1cncc1[C@@](N)(c1ccc(Cl)cc1)c1ccc2c(c1)c(-c1cccc(Cl)c1)cc(=O)n2C [tipifarnib]
Method in brief: as §1

mubritinib = compound: FC(F)(F)c1ccc(/C=C/c2nc(COc3ccc(CCCCn4ccnn4)cc3)co2)cc1 [mubritinib]
Method in brief: as §1

[5] = compound: NC(=O)Nc1cc(-c2cccc(F)c2)sc1C(=O)N[C@H]1CCCNC1
Method in brief: as §1

[6] = compound: NC(=O)c1cnc(N[C@@H]2CCCC[C@@H]2N)nc1Nc1cccc(-n2nccn2)c1
Method in brief: as §1

[7] = compound: NC1(c2ccc(-c3nc4ccn5c(=O)[nH]nc5c4cc3-c3ccccc3)cc2)CCC1
Method in brief: as §1

[8] = compound: NCC(=O)Nc1ccc(-n2nc(C(F)(F)F)cc2-c2ccc3c(ccc4ccccc43)c2)cc1
Method in brief: as §1

entinostat = compound: Nc1ccccc1NC(=O)c1ccc(CNC(=O)OCc2cccnc2)cc1 [entinostat]
Method in brief: as §1

citarinostat = compound: O=C(CCCCCCNC(=O)c1cnc(N(c2ccccc2)c2ccccc2Cl)nc1)NO [citarinostat]
Method in brief: as §1

silmitasertib = compound: O=C(O)c1ccc2c(c1)nc(Nc1cccc(Cl)c1)c1ccncc12 [silmitasertib]
Method in brief: as §1

[9] = compound: O=C1NC(=O)C(c2cnc3ccccn23)=C1c1cn2c3c(cc(F)cc13)CN(C(=O)N1CCCCC1)CC2
Method in brief: as §1

[10] = compound: c1cc(OCCN2CCCCC2)cc(-c2n[nH]c3ccc(-c4nnc[nH]4)cc23)c1
Method in brief: as §1

[11] = compound: Cc1cccc(CC(=O)N2CCc3c2ccc(-c2cn(C)c4ncnc(N)c24)c3F)n1
Method in brief: as §1

vorinostat = compound: O=C(CCCCCCC(=O)Nc1ccccc1)NO [vorinostat]
Method in brief: as §1

Measured: log2 fold change

CCDC28A (UniProt Q8IWP9)
inactive: bafetinib 0.052 | nilotinib -0.029 | [1] -0.1 | dasatinib -0.052 | [2] -0.03 | [3] -0.306 | [4] 0.003 | tipifarnib 0.085 | mubritinib -0.005 | [5] -0.007 | [6] -0.123 | [7] -0.014 | [8] 0.142 | entinostat -0.031 | citarinostat 0.006 | silmitasertib 0.008 | [9] -0.244 | [10] 0.017

CD276 (UniProt Q5ZPR3)
inactive: bafetinib -0.115 | [11] -0.072 | vorinostat 0.043

CAV2 (UniProt P51636)
active: bafetinib -1.25
inactive: [11] -0.054 | nilotinib 0.221 | [1] -0.082 | dasatinib 0.033 | [2] 0.008 | tipifarnib 0.136 | mubritinib 0.066 | [5] -0.251 | [6] -0.041 | [7] 0.027 | entinostat -0.088 | vorinostat 0.147 | silmitasertib 0.106

CCNY (UniProt Q8ND76)
inactive: bafetinib 0.381 | [11] -0.277 | nilotinib 0.22 | [1] -0.231 | dasatinib 0.112 | [2] 0.025 | [3] 0.002 | [4] 0.077 | tipifarnib 0.107 | [5] -0.046 | [6] 0.066 | [8] -0.032 | entinostat -0.16 | vorinostat 0.218 | [9] 0.194

CCDC28B (UniProt Q9BUN5)
inactive: bafetinib 0.03 | [11] -0.066 | tipifarnib 0.044 | mubritinib -0.073 | [5] -0.133 | [6] 0.014 | [7] -0.019 | [8] -0.016 | entinostat -0.17 | vorinostat 0.067 | silmitasertib 0.158

CCDC82 (UniProt Q8N4S0)
inactive: bafetinib -0.091 | nilotinib 0.018 | [1] -0.017 | dasatinib 0.015 | [2] -0.043 | [3] -0.132 | [4] -0.021 | tipifarnib 0.01 | mubritinib 0.087 | [6] -0.083 | [7] -0.146 | [8] -0.063 | citarinostat 0.023 | silmitasertib 0.047 | [9] -0.169 | [10] 0.046
